Laboratory results: patent US20250090663A1
These are yes or no findings as the source states them, for the method shown. Some entries that bind do so weakly or less than the wild type. For some assays here: Where a sequence is shown, tags or fusion partners need not be part of it.

Experiments:
[1] = target: IL13RA2 Protein, Rhesus macaque, His tag (Rhesus macaque); experiment: BLI; summary of Table 9B
[2] = target: T1, CD70 (antigen of the Carterra KD analysis) (UniProt P32970); experiment: Carterra KD analysis of VHH-Fc fusion constructs
T1 sequence (looked up): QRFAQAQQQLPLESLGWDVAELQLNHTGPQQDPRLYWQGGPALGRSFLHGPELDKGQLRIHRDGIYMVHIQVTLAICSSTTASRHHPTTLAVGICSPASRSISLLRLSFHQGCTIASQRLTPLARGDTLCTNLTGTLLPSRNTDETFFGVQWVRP

B1: IL13Ra2_2TIG4_f3 (VHH)
VHH: QVQLQESGGGLVQPGGSLRLSCAASGRTYGMGWFRQAPGKEREFVAVGVWSSGNTYYADFARGRFTISRDNAKNTVYLQMDSLKPEDTAVYYCAAPRYSSYTTYHAAYDYWGPGTQVTVSS
modifications: biotinylated (site not stated)
Q: For B1, which binding [1] is on record?
A: The binding was “binds”.

B2: VH52f3 (VHH)
VHH: QVQLQESGGGLVQPGGSLRLSCEVSGSIFSINRMAWYRQVPEKEREMVAQITYGDTIKYYGSAKGRFTISRDSAKNAVYLQMNSLKPEDTAVYRCNIVGVLTTGHYEDSFWGQGTQVTVPS
modifications: biotinylated (site not stated)
Q: With B2 as the binder, how does the binding [1] read?
A: Its binding is “binds”.

B3: VH36f1 (VHH)
VHH: QVQLQESGGGSVQPGGSLRLSCAASGINISSDVMEWFRQGPGEQRELVAHITTNSRTEYADFVKGRFTISRANAKNTLYLQMNGLKPEDTALYYCALRRGGRILWGQGTQVTVSS
modifications: biotinylated (site not stated)
Q: For B3, which binding [1] is on record?
A: Its binding is “binds”.

B4: VH53f3 (VHH)
VHH: QVQLQESGGGLVQPGGSLRLSCEVSGSISSINRMAWYRQVPGKEREMVAQITYGDTIKYYGSAKGRFTISKDSAKNAVYLQMNSLKPEDTAVYRCNIVGVLTTGHYENSFWGQGTQVTVSS
modifications: biotinylated (site not stated)
Q: Which binding [1] does the source give for B4 here?
A: The binding was “binds”.

B5: H1-Fc (anti-CD70 VHH-Fc fusion polypeptide) (Fc fusion, not shown: a dimerising Fc or GST)
chain: QVQLQESGGGLVQAGGSLRLSCAAPRSIFSINAMGWYRQAPGKQRELVAAITSGGSPTYADSVKGRFTISRDNAKNTVYLQMNSLKAEDTAVYYCATGPYGLDNALDAWGQGTQVTVSS
Q: With B5 as the binder, how does the binding [2] read?
A: The binding was “binds”.
